Measured values from the supplement of paper PMC6411743.
± gives the standard deviation of the averaged measurements. The list shows a part of the results.

Protein sequences, listed by entry. Tags and fused reporters are not part of them. Lines headed by an entry give the natural chain unless they say otherwise; changes in a name come on top.
UniProt P13861, whole entry: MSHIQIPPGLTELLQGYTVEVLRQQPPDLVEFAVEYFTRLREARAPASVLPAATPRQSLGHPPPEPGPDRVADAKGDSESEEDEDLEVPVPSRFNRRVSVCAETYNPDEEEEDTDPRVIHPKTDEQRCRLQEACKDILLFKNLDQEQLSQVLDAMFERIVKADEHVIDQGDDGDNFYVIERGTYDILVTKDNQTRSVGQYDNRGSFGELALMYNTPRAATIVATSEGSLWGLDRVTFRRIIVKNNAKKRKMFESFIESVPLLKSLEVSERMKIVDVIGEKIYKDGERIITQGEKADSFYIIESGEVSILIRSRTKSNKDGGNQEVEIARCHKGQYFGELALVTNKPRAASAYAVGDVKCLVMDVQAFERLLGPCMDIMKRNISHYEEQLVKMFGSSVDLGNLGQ
UniProt P15812: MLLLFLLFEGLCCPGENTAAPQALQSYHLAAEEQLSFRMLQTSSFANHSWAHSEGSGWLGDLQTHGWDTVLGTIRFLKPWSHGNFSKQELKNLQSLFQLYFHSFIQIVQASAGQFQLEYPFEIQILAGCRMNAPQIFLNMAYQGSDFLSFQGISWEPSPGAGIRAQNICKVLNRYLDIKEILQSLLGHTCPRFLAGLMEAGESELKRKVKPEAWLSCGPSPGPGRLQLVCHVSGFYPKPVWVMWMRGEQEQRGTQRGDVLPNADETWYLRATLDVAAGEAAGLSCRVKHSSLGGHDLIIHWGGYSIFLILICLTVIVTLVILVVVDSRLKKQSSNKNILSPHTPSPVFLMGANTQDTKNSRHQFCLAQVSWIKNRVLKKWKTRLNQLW
UniProt P19623: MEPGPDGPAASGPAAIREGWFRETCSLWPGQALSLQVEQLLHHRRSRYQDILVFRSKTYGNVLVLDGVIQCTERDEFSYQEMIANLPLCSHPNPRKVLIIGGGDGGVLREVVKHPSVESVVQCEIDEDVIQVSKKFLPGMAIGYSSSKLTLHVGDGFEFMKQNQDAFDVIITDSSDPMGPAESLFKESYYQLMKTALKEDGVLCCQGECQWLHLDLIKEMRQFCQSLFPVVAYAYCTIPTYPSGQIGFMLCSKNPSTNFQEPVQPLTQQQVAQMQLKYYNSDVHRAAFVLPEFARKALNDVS
UniProt P25325: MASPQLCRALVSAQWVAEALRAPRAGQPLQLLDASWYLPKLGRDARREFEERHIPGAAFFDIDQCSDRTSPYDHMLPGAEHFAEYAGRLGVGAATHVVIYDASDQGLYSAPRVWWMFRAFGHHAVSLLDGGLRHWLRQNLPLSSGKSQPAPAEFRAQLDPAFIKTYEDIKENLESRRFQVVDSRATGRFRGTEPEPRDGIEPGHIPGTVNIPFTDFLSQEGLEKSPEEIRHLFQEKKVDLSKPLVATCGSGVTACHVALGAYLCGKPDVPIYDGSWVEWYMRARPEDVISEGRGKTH
UniProt P23025: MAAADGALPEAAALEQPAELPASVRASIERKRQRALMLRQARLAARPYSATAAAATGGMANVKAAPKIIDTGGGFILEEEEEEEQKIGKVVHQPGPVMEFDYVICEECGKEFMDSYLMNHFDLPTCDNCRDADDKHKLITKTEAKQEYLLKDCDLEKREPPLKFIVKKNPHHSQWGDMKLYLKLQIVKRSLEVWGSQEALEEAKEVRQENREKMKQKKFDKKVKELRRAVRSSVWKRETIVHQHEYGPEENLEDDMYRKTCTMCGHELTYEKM
UniProt P11387: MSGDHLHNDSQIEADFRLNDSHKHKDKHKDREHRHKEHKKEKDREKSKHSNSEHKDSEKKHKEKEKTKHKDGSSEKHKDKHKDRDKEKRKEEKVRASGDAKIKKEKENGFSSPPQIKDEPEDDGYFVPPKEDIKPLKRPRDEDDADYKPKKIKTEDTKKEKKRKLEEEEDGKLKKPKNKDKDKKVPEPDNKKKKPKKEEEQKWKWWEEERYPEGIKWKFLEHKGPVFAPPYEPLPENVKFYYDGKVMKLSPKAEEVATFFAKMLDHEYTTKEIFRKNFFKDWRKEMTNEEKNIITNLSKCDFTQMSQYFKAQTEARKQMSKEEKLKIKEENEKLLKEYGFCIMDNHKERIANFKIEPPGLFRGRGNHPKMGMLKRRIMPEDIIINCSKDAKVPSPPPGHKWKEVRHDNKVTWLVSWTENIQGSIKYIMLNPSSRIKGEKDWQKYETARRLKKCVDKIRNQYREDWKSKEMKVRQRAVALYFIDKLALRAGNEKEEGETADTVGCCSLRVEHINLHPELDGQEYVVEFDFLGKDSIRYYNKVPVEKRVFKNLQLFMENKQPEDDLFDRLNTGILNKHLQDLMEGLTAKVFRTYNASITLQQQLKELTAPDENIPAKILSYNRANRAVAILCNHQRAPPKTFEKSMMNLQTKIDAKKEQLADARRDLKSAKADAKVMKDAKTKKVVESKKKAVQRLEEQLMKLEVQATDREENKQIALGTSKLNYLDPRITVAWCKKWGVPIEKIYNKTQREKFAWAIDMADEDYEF
UniProt P19784, whole entry, looked up: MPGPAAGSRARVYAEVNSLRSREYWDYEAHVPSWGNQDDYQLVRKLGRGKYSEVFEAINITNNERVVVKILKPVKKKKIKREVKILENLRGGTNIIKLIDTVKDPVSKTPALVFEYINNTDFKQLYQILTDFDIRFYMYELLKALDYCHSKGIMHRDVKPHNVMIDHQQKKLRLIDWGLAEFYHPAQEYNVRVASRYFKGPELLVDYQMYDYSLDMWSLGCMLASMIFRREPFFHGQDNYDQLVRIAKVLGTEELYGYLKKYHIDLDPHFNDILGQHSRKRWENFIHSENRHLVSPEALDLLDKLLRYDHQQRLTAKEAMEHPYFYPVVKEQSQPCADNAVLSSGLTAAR
UniProt P17152: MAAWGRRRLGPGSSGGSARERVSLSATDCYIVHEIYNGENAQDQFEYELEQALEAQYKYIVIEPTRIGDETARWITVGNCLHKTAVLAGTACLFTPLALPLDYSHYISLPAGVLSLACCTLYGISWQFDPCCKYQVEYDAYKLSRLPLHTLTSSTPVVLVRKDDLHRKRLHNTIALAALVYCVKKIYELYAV
UniProt P25445, whole entry: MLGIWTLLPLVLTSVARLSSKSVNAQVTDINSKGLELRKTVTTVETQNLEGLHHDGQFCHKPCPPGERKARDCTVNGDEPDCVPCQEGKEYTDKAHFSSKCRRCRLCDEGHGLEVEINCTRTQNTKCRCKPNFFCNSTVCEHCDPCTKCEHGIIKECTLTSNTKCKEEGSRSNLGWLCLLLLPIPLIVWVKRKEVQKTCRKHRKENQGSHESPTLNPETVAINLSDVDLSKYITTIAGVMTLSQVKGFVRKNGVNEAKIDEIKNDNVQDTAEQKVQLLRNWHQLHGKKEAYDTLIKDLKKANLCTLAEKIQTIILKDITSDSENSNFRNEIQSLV
UniProt P21912: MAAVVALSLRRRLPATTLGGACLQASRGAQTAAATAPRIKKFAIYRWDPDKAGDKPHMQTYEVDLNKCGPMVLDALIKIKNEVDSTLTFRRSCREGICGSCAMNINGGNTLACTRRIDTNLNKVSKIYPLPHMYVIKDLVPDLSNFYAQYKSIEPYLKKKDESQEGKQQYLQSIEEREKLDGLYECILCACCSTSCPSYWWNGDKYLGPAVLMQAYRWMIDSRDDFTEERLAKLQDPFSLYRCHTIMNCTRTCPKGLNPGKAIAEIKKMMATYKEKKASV
UniProt P16403, whole entry: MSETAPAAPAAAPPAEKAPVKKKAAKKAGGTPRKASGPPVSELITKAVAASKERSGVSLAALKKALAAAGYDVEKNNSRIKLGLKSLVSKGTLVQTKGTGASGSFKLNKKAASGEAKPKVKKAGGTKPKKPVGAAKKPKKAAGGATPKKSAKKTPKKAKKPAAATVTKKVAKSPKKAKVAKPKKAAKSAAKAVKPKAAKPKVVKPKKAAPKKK
UniProt P16402, whole entry: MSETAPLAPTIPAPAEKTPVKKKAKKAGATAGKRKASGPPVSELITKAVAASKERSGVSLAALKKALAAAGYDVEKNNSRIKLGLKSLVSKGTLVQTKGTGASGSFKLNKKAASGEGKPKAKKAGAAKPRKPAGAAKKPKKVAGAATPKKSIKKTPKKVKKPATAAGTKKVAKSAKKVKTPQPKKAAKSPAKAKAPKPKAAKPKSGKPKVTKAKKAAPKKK
UniProt P10606, whole entry: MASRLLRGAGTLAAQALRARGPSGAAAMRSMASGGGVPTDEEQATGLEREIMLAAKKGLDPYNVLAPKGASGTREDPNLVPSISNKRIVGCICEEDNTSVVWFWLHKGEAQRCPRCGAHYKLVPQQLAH
UniProt P16083: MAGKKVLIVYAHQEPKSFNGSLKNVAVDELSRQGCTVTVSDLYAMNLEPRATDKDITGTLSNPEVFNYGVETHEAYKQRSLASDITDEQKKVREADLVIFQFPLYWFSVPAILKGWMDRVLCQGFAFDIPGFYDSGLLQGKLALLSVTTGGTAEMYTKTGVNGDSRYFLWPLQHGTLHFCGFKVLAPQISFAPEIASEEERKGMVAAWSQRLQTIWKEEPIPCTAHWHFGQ
UniProt P15529: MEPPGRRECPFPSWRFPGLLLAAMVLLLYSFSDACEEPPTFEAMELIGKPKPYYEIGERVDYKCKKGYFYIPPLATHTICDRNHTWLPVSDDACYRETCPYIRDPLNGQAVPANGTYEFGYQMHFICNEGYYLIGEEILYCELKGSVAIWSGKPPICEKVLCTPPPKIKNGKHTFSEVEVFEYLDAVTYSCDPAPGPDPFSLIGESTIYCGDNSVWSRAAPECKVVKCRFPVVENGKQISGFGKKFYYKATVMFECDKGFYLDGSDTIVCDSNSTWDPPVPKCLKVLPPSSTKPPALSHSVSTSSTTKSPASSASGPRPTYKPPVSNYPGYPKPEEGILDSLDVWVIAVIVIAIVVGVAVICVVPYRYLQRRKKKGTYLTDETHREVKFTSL

Compound: Nc1nc2c(ncn2[C@@H]2O[C@H](COP(=O)(O)OP(=O)(O)OP(=O)(O)O)[C@@H](O)[C@H]2O)c(=O)[nH]1 [guanosine triphosphate]
Assay: NP40-soluble protein abundance relative to vehicle (solubility fold change) (ratio); higher = more soluble protein in presence of GTP
In short: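 Across three independent experiments, values are fold changes against the detergent-processed vehicle for each replicate, based on vsn-normalised intensities. The samples were Jurkat crude lysate treated with eight concentrations (0.1 to 10 mM) for 10 min at room temperature and then 3 min at 37 °C. Lysate was solubilised with 0.8% NP40 and benzonase, ultracentrifuged, and the supernatant analysed by TMT-labelled LC-MS/MS.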

Target: UniProt P13861 and related entries
- NP40-soluble protein abundance (concentration: 0.1mM): 0.993 ± 0.024
- NP40-soluble protein abundance (concentration: 0.5mM): 0.9712 ± 0.0063
- NP40-soluble protein abundance (concentration: 1mM): 0.98 ± 0.0095
- NP40-soluble protein abundance (concentration: 2mM): 0.966 ± 0.02
- NP40-soluble protein abundance (concentration: 4mM): 1.006 ± 0.004
- NP40-soluble protein abundance (concentration: 6mM): 0.981 ± 0.016
- NP40-soluble protein abundance (concentration: 8mM): 0.994 ± 0.017
- NP40-soluble protein abundance (concentration: 10mM): 0.98 ± 0.04

Target: UniProt P15812 and related entries
- NP40-soluble protein abundance (concentration: 0.1mM): 0.994 ± 0.041
- NP40-soluble protein abundance (concentration: 0.5mM): 0.973 ± 0.059
- NP40-soluble protein abundance (concentration: 1mM): 0.949 ± 0.069
- NP40-soluble protein abundance (concentration: 2mM): 0.877 ± 0.054
- NP40-soluble protein abundance (concentration: 4mM): 0.939 ± 0.082
- NP40-soluble protein abundance (concentration: 6mM): 0.933 ± 0.11
- NP40-soluble protein abundance (concentration: 8mM): 0.884 ± 0.1
- NP40-soluble protein abundance (concentration: 10mM): 0.888 ± 0.082

Target: SRM (UniProt P19623)
- NP40-soluble protein abundance (concentration: 0.1mM): 0.979 ± 0.029
- NP40-soluble protein abundance (concentration: 0.5mM): 0.982 ± 0.024
- NP40-soluble protein abundance (concentration: 1mM): 0.934 ± 0.031
- NP40-soluble protein abundance (concentration: 2mM): 0.918 ± 0.066
- NP40-soluble protein abundance (concentration: 4mM): 0.912 ± 0.078
- NP40-soluble protein abundance (concentration: 6mM): 0.903 ± 0.062
- NP40-soluble protein abundance (concentration: 8mM): 0.876 ± 0.068
- NP40-soluble protein abundance (concentration: 10mM): 0.864 ± 0.11

Target: UniProt P25325 and related entries
- NP40-soluble protein abundance (concentration: 0.1mM): 0.979 ± 0.02
- NP40-soluble protein abundance (concentration: 0.5mM): 1 ± 0.06
- NP40-soluble protein abundance (concentration: 1mM): 0.98 ± 0.05
- NP40-soluble protein abundance (concentration: 2mM): 0.98 ± 0.066
- NP40-soluble protein abundance (concentration: 4mM): 0.938 ± 0.054
- NP40-soluble protein abundance (concentration: 6mM): 0.966 ± 0.074
- NP40-soluble protein abundance (concentration: 8mM): 0.963 ± 0.046
- NP40-soluble protein abundance (concentration: 10mM): 0.977 ± 0.038

Target: UniProt P23025 and related entries
- NP40-soluble protein abundance (concentration: 0.1mM): 1.07 ± 0.044
- NP40-soluble protein abundance (concentration: 0.5mM): 1.08 ± 0.049
- NP40-soluble protein abundance (concentration: 1mM): 1.21 ± 0.054
- NP40-soluble protein abundance (concentration: 2mM): 1.02 ± 0.1
- NP40-soluble protein abundance (concentration: 4mM): 1.05 ± 0.074
- NP40-soluble protein abundance (concentration: 6mM): 1.08 ± 0.14
- NP40-soluble protein abundance (concentration: 8mM): 1.12 ± 0.028
- NP40-soluble protein abundance (concentration: 10mM): 1.08 ± 0.097

Target: TOP1 (UniProt P11387)
- NP40-soluble protein abundance (concentration: 0.1mM): 0.97 ± 0.049
- NP40-soluble protein abundance (concentration: 0.5mM): 0.996 ± 0.054
- NP40-soluble protein abundance (concentration: 1mM): 0.972 ± 0.065
- NP40-soluble protein abundance (concentration: 2mM): 1.02 ± 0.07
- NP40-soluble protein abundance (concentration: 4mM): 1.13 ± 0.077
- NP40-soluble protein abundance (concentration: 6mM): 1.25 ± 0.081
- NP40-soluble protein abundance (concentration: 8mM): 1.36 ± 0.1
- NP40-soluble protein abundance (concentration: 10mM): 1.42 ± 0.099

Target: UniProt P19784
- NP40-soluble protein abundance (concentration: 0.1mM): 1.03 ± 0.032
- NP40-soluble protein abundance (concentration: 0.5mM): 1.05 ± 0.064
- NP40-soluble protein abundance (concentration: 1mM): 0.963 ± 0.047
- NP40-soluble protein abundance (concentration: 2mM): 1.01 ± 0.097
- NP40-soluble protein abundance (concentration: 4mM): 1.01 ± 0.065
- NP40-soluble protein abundance (concentration: 6mM): 1.01 ± 0.075
- NP40-soluble protein abundance (concentration: 8mM): 1.01 ± 0.043
- NP40-soluble protein abundance (concentration: 10mM): 0.994 ± 0.076

Target: TMEM11 (UniProt P17152)
- NP40-soluble protein abundance (concentration: 0.1mM): 1.01 ± 0.011
- NP40-soluble protein abundance (concentration: 0.5mM): 1.02 ± 0.035
- NP40-soluble protein abundance (concentration: 1mM): 0.828 ± 0.055
- NP40-soluble protein abundance (concentration: 2mM): 0.873 ± 0.017
- NP40-soluble protein abundance (concentration: 4mM): 0.856 ± 0.018
- NP40-soluble protein abundance (concentration: 6mM): 0.854 ± 0.016
- NP40-soluble protein abundance (concentration: 8mM): 0.807 ± 0.1
- NP40-soluble protein abundance (concentration: 10mM): 0.795 ± 0.2

Target: UniProt P25445 and related entries
- NP40-soluble protein abundance (concentration: 0.1mM): 0.827 ± 0.14
- NP40-soluble protein abundance (concentration: 0.5mM): 0.819 ± 0.2
- NP40-soluble protein abundance (concentration: 1mM): 0.874 ± 0.16
- NP40-soluble protein abundance (concentration: 2mM): 0.856 ± 0.19
- NP40-soluble protein abundance (concentration: 4mM): 0.865 ± 0.2
- NP40-soluble protein abundance (concentration: 6mM): 0.854 ± 0.17
- NP40-soluble protein abundance (concentration: 8mM): 0.848 ± 0.16
- NP40-soluble protein abundance (concentration: 10mM): 0.89 ± 0.16

Target: SDHB (UniProt P21912)
- NP40-soluble protein abundance (concentration: 0.1mM): 1.01 ± 0.054
- NP40-soluble protein abundance (concentration: 0.5mM): 0.898 ± 0.046
- NP40-soluble protein abundance (concentration: 1mM): 1.03 ± 0.071
- NP40-soluble protein abundance (concentration: 2mM): 0.899 ± 0.063
- NP40-soluble protein abundance (concentration: 4mM): 1 ± 0.074
- NP40-soluble protein abundance (concentration: 6mM): 0.894 ± 0.044
- NP40-soluble protein abundance (concentration: 8mM): 0.972 ± 0.09
- NP40-soluble protein abundance (concentration: 10mM): 0.863 ± 0.049

Target: HIST1H1C (UniProt P16403)
- NP40-soluble protein abundance (concentration: 0.1mM): 0.984 ± 0.038
- NP40-soluble protein abundance (concentration: 0.5mM): 1.11 ± 0.074
- NP40-soluble protein abundance (concentration: 1mM): 1.18 ± 0.072
- NP40-soluble protein abundance (concentration: 2mM): 1.22 ± 0.048
- NP40-soluble protein abundance (concentration: 4mM): 1.23 ± 0.096
- NP40-soluble protein abundance (concentration: 6mM): 1.38 ± 0.074
- NP40-soluble protein abundance (concentration: 8mM): 1.26 ± 0.1
- NP40-soluble protein abundance (concentration: 10mM): 1.78 ± 0.15

Target: HIST1H1D (UniProt P16402)
- NP40-soluble protein abundance (concentration: 0.1mM): 0.894 ± 0.042
- NP40-soluble protein abundance (concentration: 0.5mM): 0.924 ± 0.044
- NP40-soluble protein abundance (concentration: 1mM): 1.02 ± 0.032
- NP40-soluble protein abundance (concentration: 2mM): 1.03 ± 0.038
- NP40-soluble protein abundance (concentration: 4mM): 1.15 ± 0.08
- NP40-soluble protein abundance (concentration: 6mM): 1.3 ± 0.14
- NP40-soluble protein abundance (concentration: 8mM): 1.22 ± 0.034
- NP40-soluble protein abundance (concentration: 10mM): 1.68 ± 0.049

Target: COX5B (UniProt P10606)
- NP40-soluble protein abundance (concentration: 0.1mM): 0.9 ± 0.051
- NP40-soluble protein abundance (concentration: 0.5mM): 0.965 ± 0.079
- NP40-soluble protein abundance (concentration: 1mM): 0.965 ± 0.067
- NP40-soluble protein abundance (concentration: 2mM): 0.969 ± 0.096
- NP40-soluble protein abundance (concentration: 4mM): 0.97 ± 0.14
- NP40-soluble protein abundance (concentration: 6mM): 1.02 ± 0.11
- NP40-soluble protein abundance (concentration: 8mM): 1.05 ± 0.11
- NP40-soluble protein abundance (concentration: 10mM): 1.09 ± 0.15

Target: UniProt P16083 and related entries
- NP40-soluble protein abundance (concentration: 0.1mM): 0.997 ± 0.078
- NP40-soluble protein abundance (concentration: 0.5mM): 0.999 ± 0.022
- NP40-soluble protein abundance (concentration: 1mM): 0.987 ± 0.098
- NP40-soluble protein abundance (concentration: 2mM): 0.906 ± 0.059
- NP40-soluble protein abundance (concentration: 4mM): 0.95 ± 0.089
- NP40-soluble protein abundance (concentration: 6mM): 0.923 ± 0.087
- NP40-soluble protein abundance (concentration: 8mM): 0.937 ± 0.071
- NP40-soluble protein abundance (concentration: 10mM): 0.933 ± 0.071

Target: UniProt P15529 and related entries
- NP40-soluble protein abundance (concentration: 0.1mM): 0.955 ± 0.056
- NP40-soluble protein abundance (concentration: 0.5mM): 0.943 ± 0.045
- NP40-soluble protein abundance (concentration: 1mM): 0.956 ± 0.063
- NP40-soluble protein abundance (concentration: 2mM): 0.951 ± 0.12
- NP40-soluble protein abundance (concentration: 4mM): 0.91 ± 0.1
- NP40-soluble protein abundance (concentration: 6mM): 0.911 ± 0.069
- NP40-soluble protein abundance (concentration: 8mM): 0.932 ± 0.094
- NP40-soluble protein abundance (concentration: 10mM): 0.936 ± 0.039
